Five molecules from PMC7617243 can be followed below.

Chains of the proteins cited; added tags and fusions are not shown.
UniProt Q6PD10: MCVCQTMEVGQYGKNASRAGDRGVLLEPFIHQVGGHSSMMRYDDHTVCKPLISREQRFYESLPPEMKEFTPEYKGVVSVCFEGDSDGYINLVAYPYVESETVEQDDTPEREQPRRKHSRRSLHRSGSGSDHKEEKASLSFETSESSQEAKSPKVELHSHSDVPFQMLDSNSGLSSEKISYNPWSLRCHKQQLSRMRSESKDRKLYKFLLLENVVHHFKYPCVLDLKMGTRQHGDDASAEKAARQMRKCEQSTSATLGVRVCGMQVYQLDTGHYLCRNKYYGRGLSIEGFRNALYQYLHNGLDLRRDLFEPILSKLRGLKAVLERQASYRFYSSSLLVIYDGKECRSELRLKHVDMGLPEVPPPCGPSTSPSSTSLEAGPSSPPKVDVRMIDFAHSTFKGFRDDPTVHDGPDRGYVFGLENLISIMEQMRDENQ
UniProt P41233: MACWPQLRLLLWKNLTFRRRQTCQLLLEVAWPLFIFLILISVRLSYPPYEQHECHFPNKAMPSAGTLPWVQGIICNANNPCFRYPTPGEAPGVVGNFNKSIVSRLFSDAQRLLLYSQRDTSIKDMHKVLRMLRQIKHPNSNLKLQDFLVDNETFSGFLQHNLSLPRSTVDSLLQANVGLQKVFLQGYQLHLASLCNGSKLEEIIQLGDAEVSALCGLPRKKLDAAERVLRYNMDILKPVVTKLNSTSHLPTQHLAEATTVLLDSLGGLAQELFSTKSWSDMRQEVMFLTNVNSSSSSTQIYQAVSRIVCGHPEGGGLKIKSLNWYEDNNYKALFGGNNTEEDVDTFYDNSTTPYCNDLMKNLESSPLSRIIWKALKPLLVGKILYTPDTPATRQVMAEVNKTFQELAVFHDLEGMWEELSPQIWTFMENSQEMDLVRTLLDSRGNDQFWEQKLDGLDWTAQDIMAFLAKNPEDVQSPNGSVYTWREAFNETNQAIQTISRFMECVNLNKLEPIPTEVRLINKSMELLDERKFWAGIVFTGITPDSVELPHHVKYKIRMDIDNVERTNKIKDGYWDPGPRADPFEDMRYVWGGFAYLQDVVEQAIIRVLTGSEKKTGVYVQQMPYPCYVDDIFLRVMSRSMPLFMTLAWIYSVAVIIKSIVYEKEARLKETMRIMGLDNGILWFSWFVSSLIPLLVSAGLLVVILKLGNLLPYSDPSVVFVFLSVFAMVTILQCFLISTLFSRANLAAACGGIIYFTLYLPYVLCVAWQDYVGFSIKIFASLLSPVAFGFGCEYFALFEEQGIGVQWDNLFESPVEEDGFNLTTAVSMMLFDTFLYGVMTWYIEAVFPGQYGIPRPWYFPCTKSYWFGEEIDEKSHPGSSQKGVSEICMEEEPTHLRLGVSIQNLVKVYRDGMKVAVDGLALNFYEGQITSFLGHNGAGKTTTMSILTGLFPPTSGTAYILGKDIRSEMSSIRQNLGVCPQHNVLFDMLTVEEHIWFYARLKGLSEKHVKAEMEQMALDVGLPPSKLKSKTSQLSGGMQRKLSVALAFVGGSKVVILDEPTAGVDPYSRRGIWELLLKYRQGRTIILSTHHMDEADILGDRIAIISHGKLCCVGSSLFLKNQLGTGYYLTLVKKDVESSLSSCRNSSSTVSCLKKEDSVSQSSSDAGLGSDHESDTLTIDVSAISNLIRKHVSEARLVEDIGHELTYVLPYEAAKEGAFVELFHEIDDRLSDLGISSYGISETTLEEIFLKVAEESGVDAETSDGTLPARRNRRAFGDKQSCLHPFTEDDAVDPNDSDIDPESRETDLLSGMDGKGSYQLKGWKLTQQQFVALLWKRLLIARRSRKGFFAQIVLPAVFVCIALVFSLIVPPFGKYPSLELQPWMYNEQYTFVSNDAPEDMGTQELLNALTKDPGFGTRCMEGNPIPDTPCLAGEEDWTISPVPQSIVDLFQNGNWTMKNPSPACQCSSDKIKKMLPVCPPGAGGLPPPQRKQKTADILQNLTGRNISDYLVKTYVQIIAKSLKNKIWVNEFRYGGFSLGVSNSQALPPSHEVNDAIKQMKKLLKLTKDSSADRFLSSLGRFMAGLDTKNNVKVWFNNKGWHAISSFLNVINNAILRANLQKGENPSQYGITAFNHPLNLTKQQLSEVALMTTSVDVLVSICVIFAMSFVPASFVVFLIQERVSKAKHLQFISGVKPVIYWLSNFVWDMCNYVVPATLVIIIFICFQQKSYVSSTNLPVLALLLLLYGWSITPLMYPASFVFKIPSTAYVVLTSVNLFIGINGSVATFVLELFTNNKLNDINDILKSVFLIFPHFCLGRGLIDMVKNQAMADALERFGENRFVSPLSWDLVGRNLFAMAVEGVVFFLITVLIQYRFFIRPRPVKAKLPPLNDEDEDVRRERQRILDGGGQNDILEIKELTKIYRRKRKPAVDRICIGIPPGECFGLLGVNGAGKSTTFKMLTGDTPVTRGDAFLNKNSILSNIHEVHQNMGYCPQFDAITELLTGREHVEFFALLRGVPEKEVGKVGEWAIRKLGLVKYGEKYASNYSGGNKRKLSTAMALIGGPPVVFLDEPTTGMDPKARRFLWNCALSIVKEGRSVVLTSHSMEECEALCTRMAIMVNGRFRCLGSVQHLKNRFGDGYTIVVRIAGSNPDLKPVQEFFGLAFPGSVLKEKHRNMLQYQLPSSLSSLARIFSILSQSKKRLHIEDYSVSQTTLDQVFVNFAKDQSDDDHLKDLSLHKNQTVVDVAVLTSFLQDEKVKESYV

Read-outs that look alike come from different tables or passages of the source. These are yes or no findings as the source states them, for the method shown. For some assays here: Binding seen in cells or lysates may run through a third protein. Some entries that bind do so weakly or less than the wild type. For some assays here: Where a sequence is shown, tags or fusion partners need not be part of it.

Assay [1] concerns the target T1, Apolipoprotein A-I (apoA-I), endogenous (mouse (endogenous in primary murine hepatocytes)) (UniProt Q00623).
T1 sequence: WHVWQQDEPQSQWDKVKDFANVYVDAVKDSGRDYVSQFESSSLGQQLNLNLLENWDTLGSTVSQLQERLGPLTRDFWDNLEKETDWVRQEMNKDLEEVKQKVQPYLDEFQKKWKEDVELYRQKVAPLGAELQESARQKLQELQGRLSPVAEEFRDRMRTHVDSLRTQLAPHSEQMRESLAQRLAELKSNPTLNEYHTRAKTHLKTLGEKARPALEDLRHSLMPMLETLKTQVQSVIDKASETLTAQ
Kind of assay: co-IP; endogenous proteins in primary murine hepatocytes (for ABCA1: WT and IP6K1 KO hepatocytes); lysis buffer 50 mM Tris-HCl pH 7.4, 100 mM NaCl, 0.5% Igepal CA630, 5 mM MgCl2; primary antibody overnight at 4°C, protein A/G beads.

The target of assay [2] is T2, Ubiquitination factor E4A (UBE4A), endogenous (mouse (endogenous in primary murine hepatocytes)) (UniProt E9Q735).
T2 sequence: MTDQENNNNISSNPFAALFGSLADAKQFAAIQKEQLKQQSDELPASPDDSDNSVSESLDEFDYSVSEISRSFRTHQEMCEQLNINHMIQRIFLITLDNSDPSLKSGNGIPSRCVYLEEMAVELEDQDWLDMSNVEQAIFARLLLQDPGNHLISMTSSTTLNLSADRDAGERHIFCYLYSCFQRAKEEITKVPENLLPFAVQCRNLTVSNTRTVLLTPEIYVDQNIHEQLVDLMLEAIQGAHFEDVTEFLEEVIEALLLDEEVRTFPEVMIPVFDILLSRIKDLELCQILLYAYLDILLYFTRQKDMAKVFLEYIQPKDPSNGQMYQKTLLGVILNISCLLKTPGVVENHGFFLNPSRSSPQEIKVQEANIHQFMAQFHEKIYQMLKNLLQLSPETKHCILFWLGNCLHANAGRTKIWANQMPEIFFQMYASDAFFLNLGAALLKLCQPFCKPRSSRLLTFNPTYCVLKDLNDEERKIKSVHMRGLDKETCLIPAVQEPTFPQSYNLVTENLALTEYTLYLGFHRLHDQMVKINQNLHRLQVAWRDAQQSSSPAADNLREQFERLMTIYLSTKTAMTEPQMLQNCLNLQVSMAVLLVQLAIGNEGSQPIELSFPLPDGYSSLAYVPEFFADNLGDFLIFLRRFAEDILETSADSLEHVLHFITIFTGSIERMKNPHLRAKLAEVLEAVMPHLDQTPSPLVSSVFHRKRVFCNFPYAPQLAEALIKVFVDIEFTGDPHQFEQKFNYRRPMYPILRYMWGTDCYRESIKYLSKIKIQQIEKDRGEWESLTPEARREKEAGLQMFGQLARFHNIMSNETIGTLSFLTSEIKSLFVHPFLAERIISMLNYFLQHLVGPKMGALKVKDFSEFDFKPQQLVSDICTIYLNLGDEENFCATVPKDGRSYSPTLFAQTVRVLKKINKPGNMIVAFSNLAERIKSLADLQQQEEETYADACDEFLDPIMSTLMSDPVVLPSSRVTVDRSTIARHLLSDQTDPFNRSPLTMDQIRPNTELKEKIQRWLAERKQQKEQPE
Described as above.

Assay [3] has as its target T3, Flag-tagged apoA-I (overexpressed in primary murine hepatocytes) (UniProt Q00623).
T3 sequence: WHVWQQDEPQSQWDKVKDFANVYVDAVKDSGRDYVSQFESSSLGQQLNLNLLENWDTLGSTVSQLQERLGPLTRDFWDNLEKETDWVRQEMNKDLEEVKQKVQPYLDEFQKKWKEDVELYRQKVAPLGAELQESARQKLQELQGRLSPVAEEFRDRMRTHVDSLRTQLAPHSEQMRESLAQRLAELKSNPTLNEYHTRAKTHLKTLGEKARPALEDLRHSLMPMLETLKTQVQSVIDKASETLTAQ
The assay is described as follows: co-IP; flag-apoA-I overexpressed in primary murine hepatocytes, endogenous UBE4A; WT against IP6K1 KO cells, and cells treated with SC-919 (1 μM, 24 hours) against untreated; less complex in IP6K1 KO and in SC-919-treated cells.

For assay [4], the target named is Inositol hexakisphosphate kinase 1 (IP6K1), endogenous (mouse (endogenous in primary murine hepatocytes)) (UniProt Q6PD10). Kind of assay: co-IP; endogenous proteins in primary murine hepatocytes (for ABCA1: WT and IP6K1 KO hepatocytes); lysis buffer 50 mM Tris-HCl pH 7.4, 100 mM NaCl, 0.5% Igepal CA630, 5 mM MgCl2; primary antibody overnight at 4°C, protein A/G beads.

Assay [5] concerns the target T1, Apolipoprotein A-I (apoA-I), endogenous (mouse (endogenous in primary murine hepatocytes)). The assay is described as above. This is another data set of the same source.
Assay [6] deals with T4, Flag-tagged apoA-I (made in HEK 293 cells) (UniProt Q00623).
T4 sequence: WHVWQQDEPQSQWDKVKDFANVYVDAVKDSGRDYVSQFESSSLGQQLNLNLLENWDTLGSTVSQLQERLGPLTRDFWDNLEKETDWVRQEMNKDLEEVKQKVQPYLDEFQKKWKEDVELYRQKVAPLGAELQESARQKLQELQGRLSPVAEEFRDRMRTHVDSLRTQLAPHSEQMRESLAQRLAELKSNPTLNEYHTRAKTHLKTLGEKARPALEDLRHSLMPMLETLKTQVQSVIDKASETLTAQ
Kind of assay: pull-down; in vitro binding assay: flag-apoA-I held on protein A/G agarose by anti-flag-tag antibody; purified UBE4A added in the presence of InsP6, 5PP-InsP5, 5PCP, CF2, 1PP-InsP5, 3PP-InsP5, InsP3, InsP4 or InsP5, overnight at 4°C; beads washed three times; both purified.

The target of assay [7] is T2, Ubiquitination factor E4A (UBE4A), endogenous (mouse (endogenous in primary murine hepatocytes)). Kind of assay: co-IP; flag-apoA-I overexpressed in primary murine hepatocytes, endogenous UBE4A; WT against IP6K1 KO cells, and cells treated with SC-919 (1 μM, 24 hours) against untreated; less complex in IP6K1 KO and in SC-919-treated cells.

Take “ATP binding cassette subfamily A member 1 (ABCA1), endogenous (from UniProt P41233 1-2261)”: the binding entry in assay [1] was “binds”.

As for “Inositol hexakisphosphate kinase 1 (IP6K1), endogenous (from UniProt Q6PD10 1-433) (enzyme)”, the binding result in assay [1] and in assay [2] was “binds” each time.

B1: Ubiquitination factor E4A (UBE4A), endogenous (enzyme, UniProt E9Q735 1-1028)
chain: MTDQENNNNISSNPFAALFGSLADAKQFAAIQKEQLKQQSDELPASPDDSDNSVSESLDEFDYSVSEISRSFRTHQEMCEQLNINHMIQRIFLITLDNSDPSLKSGNGIPSRCVYLEEMAVELEDQDWLDMSNVEQAIFARLLLQDPGNHLISMTSSTTLNLSADRDAGERHIFCYLYSCFQRAKEEITKVPENLLPFAVQCRNLTVSNTRTVLLTPEIYVDQNIHEQLVDLMLEAIQGAHFEDVTEFLEEVIEALLLDEEVRTFPEVMIPVFDILLSRIKDLELCQILLYAYLDILLYFTRQKDMAKVFLEYIQPKDPSNGQMYQKTLLGVILNISCLLKTPGVVENHGFFLNPSRSSPQEIKVQEANIHQFMAQFHEKIYQMLKNLLQLSPETKHCILFWLGNCLHANAGRTKIWANQMPEIFFQMYASDAFFLNLGAALLKLCQPFCKPRSSRLLTFNPTYCVLKDLNDEERKIKSVHMRGLDKETCLIPAVQEPTFPQSYNLVTENLALTEYTLYLGFHRLHDQMVKINQNLHRLQVAWRDAQQSSSPAADNLREQFERLMTIYLSTKTAMTEPQMLQNCLNLQVSMAVLLVQLAIGNEGSQPIELSFPLPDGYSSLAYVPEFFADNLGDFLIFLRRFAEDILETSADSLEHVLHFITIFTGSIERMKNPHLRAKLAEVLEAVMPHLDQTPSPLVSSVFHRKRVFCNFPYAPQLAEALIKVFVDIEFTGDPHQFEQKFNYRRPMYPILRYMWGTDCYRESIKYLSKIKIQQIEKDRGEWESLTPEARREKEAGLQMFGQLARFHNIMSNETIGTLSFLTSEIKSLFVHPFLAERIISMLNYFLQHLVGPKMGALKVKDFSEFDFKPQQLVSDICTIYLNLGDEENFCATVPKDGRSYSPTLFAQTVRVLKKINKPGNMIVAFSNLAERIKSLADLQQQEEETYADACDEFLDPIMSTLMSDPVVLPSSRVTVDRSTIARHLLSDQTDPFNRSPLTMDQIRPNTELKEKIQRWLAERKQQKEQPE
In the case of B1, the binding result in assay [3], in assay [4] and in assay [5] was “binds” each time.

B2: GST-fused UBE4A (enzyme, UniProt E9Q735 1-1028)
chain: MTDQENNNNISSNPFAALFGSLADAKQFAAIQKEQLKQQSDELPASPDDSDNSVSESLDEFDYSVSEISRSFRTHQEMCEQLNINHMIQRIFLITLDNSDPSLKSGNGIPSRCVYLEEMAVELEDQDWLDMSNVEQAIFARLLLQDPGNHLISMTSSTTLNLSADRDAGERHIFCYLYSCFQRAKEEITKVPENLLPFAVQCRNLTVSNTRTVLLTPEIYVDQNIHEQLVDLMLEAIQGAHFEDVTEFLEEVIEALLLDEEVRTFPEVMIPVFDILLSRIKDLELCQILLYAYLDILLYFTRQKDMAKVFLEYIQPKDPSNGQMYQKTLLGVILNISCLLKTPGVVENHGFFLNPSRSSPQEIKVQEANIHQFMAQFHEKIYQMLKNLLQLSPETKHCILFWLGNCLHANAGRTKIWANQMPEIFFQMYASDAFFLNLGAALLKLCQPFCKPRSSRLLTFNPTYCVLKDLNDEERKIKSVHMRGLDKETCLIPAVQEPTFPQSYNLVTENLALTEYTLYLGFHRLHDQMVKINQNLHRLQVAWRDAQQSSSPAADNLREQFERLMTIYLSTKTAMTEPQMLQNCLNLQVSMAVLLVQLAIGNEGSQPIELSFPLPDGYSSLAYVPEFFADNLGDFLIFLRRFAEDILETSADSLEHVLHFITIFTGSIERMKNPHLRAKLAEVLEAVMPHLDQTPSPLVSSVFHRKRVFCNFPYAPQLAEALIKVFVDIEFTGDPHQFEQKFNYRRPMYPILRYMWGTDCYRESIKYLSKIKIQQIEKDRGEWESLTPEARREKEAGLQMFGQLARFHNIMSNETIGTLSFLTSEIKSLFVHPFLAERIISMLNYFLQHLVGPKMGALKVKDFSEFDFKPQQLVSDICTIYLNLGDEENFCATVPKDGRSYSPTLFAQTVRVLKKINKPGNMIVAFSNLAERIKSLADLQQQEEETYADACDEFLDPIMSTLMSDPVVLPSSRVTVDRSTIARHLLSDQTDPFNRSPLTMDQIRPNTELKEKIQRWLAERKQQKEQPE
B2: the binding result in assay [6] is “binds”.

B3: Flag-tagged apoA-I (overexpressed in primary murine hepatocytes) (protein, UniProt Q00623 19-264)
chain: WHVWQQDEPQSQWDKVKDFANVYVDAVKDSGRDYVSQFESSSLGQQLNLNLLENWDTLGSTVSQLQERLGPLTRDFWDNLEKETDWVRQEMNKDLEEVKQKVQPYLDEFQKKWKEDVELYRQKVAPLGAELQESARQKLQELQGRLSPVAEEFRDRMRTHVDSLRTQLAPHSEQMRESLAQRLAELKSNPTLNEYHTRAKTHLKTLGEKARPALEDLRHSLMPMLETLKTQVQSVIDKASETLTAQ
On to B3, for which the binding entry in assay [7] is “binds”.
